No constants are given. Whether binding was seen depends on the method and setting. Binding calls can cover weak binding; strength is not graded here. Each block holds one binder with its values, some of them ahead of it.
How the values were obtained:
[1] = target: recombinant human αvβ8 protein (PARS-17102) (human); assay: SPR
[2] = target: recombinant human αvβ8 protein (PARS-17102) (human); assay: SPR, Biacore T200, Protein A capture

- binding [1]: binds
B1: Hu.aVb8-92.H13L1 (aVb8-92.H13L1.hIgG1.LALAPG) (antibody, V domains shown)
VH: EQQLLESGGGLVQPGGSLRLSCAASGFSLSSYAMGWVRQAPGKGLEWIGVIRKDDNTYYGNWAKGRFTISRDSSKNTLYLQMNSLRAEDTAVYFCARALNTYVGFPYFNIWGPGTLVTVSS
VL: DAVLTQSPDSLAVSLGERATINCQSIKSVGDNKWLAWYQQKPGQPPKLLIYDASDLASGVPDRFSGSGSRTDFTLTISSLQAEDVAVYYCAGSVSSGDSGFGGGTKVEIKR
notes: Human IgG1 LALAPG; also called PARS-20463-65 (IH) aVb8-92.H13L1.hIgG1.LALAPG; humanized αvβ8-92

- binding [1]: binds
B2: Rb.aVb8-65 (antibody, V domains shown)
VH: QSVEESGGRLVTPGTPLTLTCTVSGIDLSNYAMIWVRQAPGKGLEWIGIISSSDRIWYASWVKGRFTISKTSSTTVDLQMTSLTTEDTATYFCSRSVSNSYFDGWNLWGPGTLVTVSS
VL: DIVMTQTPASVEAAVGGTVTIKCQASENINSLLAWYQQKPGQPPKLLIYRASTLASGVPSRFRGSGSGTQFTLTISDLECDDAATYYCQSNYGFTGSGAFFYGFGGGTEVVVE
notes: Recombinant rabbit monoclonal antibody expressed in Expi293 cells; also called rb.αvβ8-65; rabbit αvβ8-65

- binding [2]: binds
- binding [1]: binds
B3: Hu.aVb8-65.H15L2 (aVb8-65.H15L2.hIgG1.LALAPG) (antibody, V domains shown)
VH: EVQLLESGGGLVQPGGSLRLSCAASGIDLSNYAMIWVRQAPGKGLEWVGIISSSDRIWYASWVKGRFTISRDNSKNTLYLQMNSLRAEDTAVYYCSRSVSNSYFDGWNLWGQGTLVTVSS
VL: DIQMTQSPSSVSASVGDRVTITCQASENINSLLAWYQQKPGKAPKLLIYRASTLASGVPSRFSGSGSGTDFTLTISSLQPEDFATYYCQSNYGFTGSGAFFYGFGQGTKVEIKR
notes: Human IgG1 LALAPG; also called PARS-20475-65 (IH) aVb8-65.H15L2.hIgG1.LALAPG; humanized αvβ8-65

From patent US20240327522A1 (Genentech, published 2024)
